For 2 substances, binding results are on record in paper PMC5874046, “Interaction of HuDA and PABP at 5'UTR of mouse insulin2 regulates insulin biosynthesis”.

Protein sequences, listed by entry. Tags and fused reporters are not part of them. Lines headed by an entry give the natural chain unless they say otherwise; changes in a name come on top. Chains listed by the source or under a name are the forms on record and can include a tag or linker.
UniProt Q61701: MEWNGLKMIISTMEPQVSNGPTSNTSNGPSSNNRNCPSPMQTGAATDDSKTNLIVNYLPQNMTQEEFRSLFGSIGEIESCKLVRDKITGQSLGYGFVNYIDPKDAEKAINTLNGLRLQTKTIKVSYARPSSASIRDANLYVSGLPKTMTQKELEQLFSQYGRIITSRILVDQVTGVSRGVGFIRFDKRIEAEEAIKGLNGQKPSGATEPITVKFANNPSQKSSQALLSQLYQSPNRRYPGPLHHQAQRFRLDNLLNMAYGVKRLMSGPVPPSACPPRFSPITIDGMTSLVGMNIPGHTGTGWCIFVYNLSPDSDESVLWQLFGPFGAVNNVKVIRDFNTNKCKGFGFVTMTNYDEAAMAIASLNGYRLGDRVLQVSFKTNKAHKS
GST-HuD B (Q61701-4, form named): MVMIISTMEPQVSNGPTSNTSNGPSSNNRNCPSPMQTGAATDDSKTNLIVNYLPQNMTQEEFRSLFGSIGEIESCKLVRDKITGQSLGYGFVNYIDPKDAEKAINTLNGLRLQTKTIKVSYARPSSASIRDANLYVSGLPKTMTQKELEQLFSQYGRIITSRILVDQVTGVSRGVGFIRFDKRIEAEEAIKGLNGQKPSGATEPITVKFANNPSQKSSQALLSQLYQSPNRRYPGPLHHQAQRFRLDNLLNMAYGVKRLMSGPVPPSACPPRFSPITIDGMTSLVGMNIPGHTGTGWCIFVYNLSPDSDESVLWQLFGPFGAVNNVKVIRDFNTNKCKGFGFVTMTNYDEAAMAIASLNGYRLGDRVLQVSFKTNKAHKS
UniProt P29341: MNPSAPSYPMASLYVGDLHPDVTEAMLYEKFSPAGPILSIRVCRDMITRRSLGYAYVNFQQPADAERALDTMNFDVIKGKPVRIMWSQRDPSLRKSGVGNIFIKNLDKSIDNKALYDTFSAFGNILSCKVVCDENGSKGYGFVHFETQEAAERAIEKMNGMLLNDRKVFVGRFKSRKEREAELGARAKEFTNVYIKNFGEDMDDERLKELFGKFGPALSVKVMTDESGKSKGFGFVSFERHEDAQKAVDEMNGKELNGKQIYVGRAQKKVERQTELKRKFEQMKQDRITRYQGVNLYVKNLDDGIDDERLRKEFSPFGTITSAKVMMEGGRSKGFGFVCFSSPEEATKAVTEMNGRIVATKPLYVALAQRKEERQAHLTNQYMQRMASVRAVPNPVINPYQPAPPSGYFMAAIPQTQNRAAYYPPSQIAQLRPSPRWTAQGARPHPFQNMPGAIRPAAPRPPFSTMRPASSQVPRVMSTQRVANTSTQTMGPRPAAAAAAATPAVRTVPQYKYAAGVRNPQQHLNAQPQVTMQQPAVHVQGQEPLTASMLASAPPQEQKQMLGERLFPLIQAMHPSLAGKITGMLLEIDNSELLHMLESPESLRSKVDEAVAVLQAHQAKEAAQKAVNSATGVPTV

Results are given in words; binding and its absence hold for the method and conditions named. Some entries that bind do so weakly or less than the wild type.

Experiment [1] addresses T1, GST-HuD B (mouse, UniProt Q61701-4 1-380). Description: pull-down; GST pull-down: His-PABP incubated with GST or GST-HuD B, no RNA added; western blot; both purified.
Experiment [2] deals with T1, GST-HuD B. Description: pull-down; GST pull-down from a mixture of recombinant His-PABP, GST-HuD B and His-PDI or His-PDIΔC; western blot; both purified.
The target in a further experiment is His-HuD A (mouse, UniProt Q61701 1-385). Description: co-IP; purified recombinant His-PABP, His-HuD A and His-GFP (2 μg each) mixed with PDIΔC, with or without long 5'UTR RNA (150 ng); IP with anti-HuD antibody; western blot; both purified.
Experiment [3] concerns the target His-PABP (recombinant poly-A-binding protein) (UniProt P29341). Description: co-IP; purified recombinant His-PABP, His-HuD A and His-GFP (2 μg each) mixed with PDIΔC (Fig 7D right panel: without Ins2L 5'UTR RNA); IP with anti-PABP antibody; western blot; both purified.

“His-PABP (recombinant poly-A-binding protein) (from UniProt P29341 1-636)”: the binding entry in the experiment with GST-HuD B [1], with GST-HuD B [2] and with His-HuD A was “binds” in each case.
For His-HuD A (from UniProt Q61701-1 1-385), the binding entry in experiment [3] was “no binding (condition: in the presence of PDIΔC)”.
